First the molecules themselves.
T1: Homer1 EVH1 domain
T1 chain: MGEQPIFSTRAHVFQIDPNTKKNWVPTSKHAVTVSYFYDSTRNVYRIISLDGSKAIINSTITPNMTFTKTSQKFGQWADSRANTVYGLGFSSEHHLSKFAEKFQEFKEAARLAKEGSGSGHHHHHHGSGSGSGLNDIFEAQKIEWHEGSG

B1: unnamed (peptide)
chain: SRISDKFKYIIAQLMRDTESLAKRICKDLENLSQIH
B2: unnamed (peptide)
chain: MAAAAPGNGRASAPRLLLLFLVPLLWAPAAVRAGPD
B3: unnamed (peptide)
chain: MELVLVFLCSLLAPMVLASAAEKEKEMDPFHYDYQT
B4: unnamed (peptide)
chain: EMDGNDLMQASKELSDLEIEMYALLGVFCLAILVFL
B5: unnamed (peptide)
chain: PPEQWRATRVEILRRLLVTSQARAVAPGGATRLTDK
B6: unnamed (peptide)
chain: SSSRWIPLQPMPVAWAFVQKTSALLWLLLLGTSLSP
B7: unnamed (peptide)
chain: PLRIAALNALAACNYLPQSREKIIAALFKALNSTNI
B8: unnamed (peptide)
chain: LTSFLCPGIVFADFFIMNLILWGEGSSAAIPFGTLV
B9: unnamed (peptide)
chain: QGMAFALLANLPAVNGLYSSFFPLLTYFFLGGVHQM
B10: unnamed (peptide)
chain: FLNDQTLEFLKIPSTLAPPMDPSVPIWIIIFGVIFC
B11: unnamed (peptide)
chain: LNELASVKVNEVVRYEAGYVVCAVIAGLYLLLVPTA
B12: unnamed (peptide)
chain: NTAENRELYIKTTLRELLVYIVFLVDICLLTYGMTS
B13: unnamed (peptide)
chain: AGPNIAAIVGGTVAGIVLIGILLLVIWKALIHLSDL
B14: unnamed (peptide)
chain: GVISTPVIRTFGRGGRYYGRGYKNQAAIQGRPPYAA
B15: unnamed (peptide)
chain: GWDQLITQLNQNHTLLRPKDRVGLIHDVFQLVGAGR
B16: unnamed (peptide)
chain: ITNDLAQIIIPKDNSSLLKRLACIAAFFCGLLILSS
B17: unnamed (peptide)
chain: HSKELITAWYIGFLVLIFSSFLVYLVEKDANKEFST
B18: unnamed (peptide)
chain: GPGVNNKSAQVLLLLVIPGHLIFLYTIHLMRSGHTS
B19: unnamed (peptide)
chain: PTLRPPRKAALAARGGRGCRARAGGLLPATQSPAMS
B20: unnamed (peptide)
chain: LLTSVSLTGVLVVMLIFTVLELLLAAYNSVFWWKQL
B21: unnamed (peptide)
chain: FGGHRIQVYFAALSLILYIFTKLSVDLYSGALFIQK
B22: unnamed (peptide)
chain: GLSFILAGLIVGGACIYKYFMPKSTIYRGEMCFFDS
B23: unnamed (peptide)
chain: QKVKVWISEYWNLTETVAIGLFSAGFVLRWGDHPFH
B24: unnamed (peptide)
chain: TTNVTAHAAYSYMYAGFSSFLILATVLCNVLVCGAL
B25: unnamed (peptide)
chain: NTCLLRGFSGGILAFLVLEAVAGALVVALWGPLQDS
B26: unnamed (peptide)
chain: MDPSADTWDLFSPLISLWINRFYIYLGFAVSISLWI
B27: unnamed (peptide)
chain: MRVALGMLWLLALAWPPQARGFCPSQCSRSLHIMGD
B28: unnamed (peptide)
chain: WGILAMKPHFLKINVSELSLWVILGCFWLFGTVILK
B29: unnamed (peptide)
chain: DYFLKMFFGSAALGTLTGLISALVLKHIDLRKTPSL
B30: unnamed (peptide)
chain: SFKWNFIKQYWQFATSAAAVCINFIIIMLLNLAYEK
B31: unnamed (peptide)
chain: YLMMPIVNISEVLGPLCLMLLVGTVHCQIVSTQITR
B32: unnamed (peptide)
chain: RHVVRLYDFFLACHPLIPIYFAAVIVLYREQEVLDC
B33: unnamed (peptide)
chain: AMAYDRFAAICHPLNYQMIMNKGVFMKLIIFSWALG
B34: unnamed (peptide)
chain: MMVVLLGATTLVLVAVAPWVLSAAAGGKNLKSPQKV
B35: unnamed (peptide)
chain: EGAQEKTNLEIIILVGTAVIAMFFWLLLVIILRTVK
B36: unnamed (peptide)
chain: HMEYTLRTRKCVSNVMIALTWALSAVISLAPLLFGW
B37: unnamed (peptide)
chain: MNNAGHGPTRRLRDLGVLAGVALLAALWLLWLLGSA
B38: unnamed (peptide)
chain: LPAFSGLTWAPFLFLFTYLPPFLNLLTVGFVSYFLV
B39: unnamed (peptide)
chain: MASRLTLLTLLLLLLAGDRASSNPNATSSSSQDPES
B40: unnamed (peptide)
chain: TEGFLLRLLYSGLIIAHCSLEILGRNDPPASASKVA
B41: unnamed (peptide)
chain: NFTYSLSVVLISYTLIVVAVLRMRSADGRRKAFSTC
B42: unnamed (peptide)
chain: PGLRVPKTLVLVVAAVLLLVSAESALITQQDLAPQQ
B43: unnamed (peptide)
chain: MFANLKYVSLGILVFQTTSLVLTMRYSRTLKEEGPR
B44: unnamed (peptide)
chain: HPASRNKKILNKKKLKRKQKSKSKVKTRSKSENLEN

This is one part of the list. Values are worked out from sequencing counts and are noisy.

The target of the assay is T1, Homer1 EVH1 domain. As to the kind of experiment: enrichment score (AUC of log2 frequency ratio across FACS sorting rounds) (log2 AUC); higher = stronger enrichment for Homer1 EVH1 binding.
Turning to B1, the enrichment score worked out at 0.29.

As to B2, the enrichment score amounted to 1.61.

As for B3, the enrichment score stood at 1.3.

Regarding B4, the enrichment score turned out to be 2.97.

As to B5, the enrichment score came out at 5.66.

Consider B6, for which the enrichment score is -0.321.

B7: the enrichment score is -0.934.

Take B8: the enrichment score is -2.24.

Take B9: the enrichment score was 0.939.

Regarding B10, the enrichment score was 1.09.

For B11, the enrichment score is 2.47.

Consider B12, for which the enrichment score amounted to 3.22.

On to B13, for which the enrichment score came to 3.9.

As for B14, the enrichment score was 1.64.

On to B15, for which the enrichment score was 0.558.

In the case of B16, the enrichment score turned out to be 2.49.

For B17, the enrichment score was found to be 2.24.

Regarding B18, the enrichment score came to 1.9.

Turning to B19, the enrichment score is 0.53.

For B20, the enrichment score amounted to 2.9.

Turning to B21, the enrichment score was -0.117.

As for B22, the enrichment score was determined as 2.66.

As for B23, the enrichment score turned out to be 0.394.

With B24, the enrichment score was found to be 3.29.

In the case of B25, the enrichment score was 1.91.

As for B26, the enrichment score is -3.53.

As to B27, the enrichment score amounted to 0.999.

Turning to B28, the enrichment score is 2.76.

Consider B29, for which the enrichment score was found to be 2.71.

Regarding B30, the enrichment score was -0.181.

As to B31, the enrichment score turned out to be 3.61.

For B32, the enrichment score stood at 1.26.

As for B33, the enrichment score was -1.63.

In the case of B34, the enrichment score turned out to be 2.9.

For B35, the enrichment score was -0.242.

As for B36, the enrichment score stood at 1.5.

With B37, the enrichment score is -0.758.

Regarding B38, the enrichment score was found to be 3.71.

Take B39: the enrichment score turned out to be 3.72.

As to B40, the enrichment score was -0.999.

As to B41, the enrichment score was determined as 1.04.

For B42, the enrichment score amounted to 2.4.

With B43, the enrichment score came out at 1.83.

As to B44, the enrichment score was -0.779.

The values above are taken from the supplement of paper PMC11237882.
